Experimental findings from paper PMC2955581 are described below.

Chains of the proteins cited; added tags and fusions are not shown.
UniProt O15372: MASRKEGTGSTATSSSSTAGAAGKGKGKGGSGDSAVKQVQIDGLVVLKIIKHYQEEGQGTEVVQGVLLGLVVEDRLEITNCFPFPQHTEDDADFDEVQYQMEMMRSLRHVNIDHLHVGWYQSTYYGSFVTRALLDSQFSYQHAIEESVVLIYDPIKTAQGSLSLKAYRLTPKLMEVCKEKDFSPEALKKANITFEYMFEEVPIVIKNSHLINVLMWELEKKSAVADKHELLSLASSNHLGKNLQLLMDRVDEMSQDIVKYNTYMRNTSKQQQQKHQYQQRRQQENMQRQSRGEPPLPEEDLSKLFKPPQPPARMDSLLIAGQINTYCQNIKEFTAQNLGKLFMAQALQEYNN

Results are given in words; binding and its absence hold for the method and conditions named. For some of these results: In cells and extracts the contact can be indirect. Some results given as binding are weak or reduced against the parent protein; the word gives no strength. Where a sequence is shown, tags or fusion partners need not be part of it.

Assay [1] concerns the target T1, GAL4BD-CB (full-length human collybistin fused to the GAL4 DNA-binding domain) (human) (UniProt O43307).
T1 sequence: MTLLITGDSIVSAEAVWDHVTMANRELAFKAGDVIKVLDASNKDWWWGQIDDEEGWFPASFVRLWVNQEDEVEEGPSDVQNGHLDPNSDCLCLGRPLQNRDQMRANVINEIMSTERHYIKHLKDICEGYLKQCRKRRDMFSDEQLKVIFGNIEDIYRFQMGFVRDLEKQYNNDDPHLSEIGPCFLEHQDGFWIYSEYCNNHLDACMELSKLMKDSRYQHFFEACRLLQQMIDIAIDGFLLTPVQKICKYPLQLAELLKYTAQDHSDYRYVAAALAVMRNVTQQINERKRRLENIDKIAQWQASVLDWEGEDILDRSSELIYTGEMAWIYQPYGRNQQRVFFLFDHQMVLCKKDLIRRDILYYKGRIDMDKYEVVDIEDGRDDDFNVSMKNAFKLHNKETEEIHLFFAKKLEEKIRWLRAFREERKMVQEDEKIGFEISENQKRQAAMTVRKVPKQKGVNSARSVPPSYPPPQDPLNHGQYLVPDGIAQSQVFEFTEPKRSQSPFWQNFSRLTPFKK
Nature of the assay: two-hybrid; Matchmaker GAL4 system 3; GAL4BD baits in pGBKT7, GAL4AD preys; yeast AH109; growth on SD/-Leu/-Trp/-Ade/-His/X-alpha-Gal/5 mM 3-AT, 30°C; library screen and retest by cotransformation.

The target of assay [2] is T2, GAL4BD-CB_(SH3-) (human collybistin lacking the N-terminal SH3 domain fused to the GAL4 DNA-binding domain) (human) (UniProt O43307).
T2 sequence: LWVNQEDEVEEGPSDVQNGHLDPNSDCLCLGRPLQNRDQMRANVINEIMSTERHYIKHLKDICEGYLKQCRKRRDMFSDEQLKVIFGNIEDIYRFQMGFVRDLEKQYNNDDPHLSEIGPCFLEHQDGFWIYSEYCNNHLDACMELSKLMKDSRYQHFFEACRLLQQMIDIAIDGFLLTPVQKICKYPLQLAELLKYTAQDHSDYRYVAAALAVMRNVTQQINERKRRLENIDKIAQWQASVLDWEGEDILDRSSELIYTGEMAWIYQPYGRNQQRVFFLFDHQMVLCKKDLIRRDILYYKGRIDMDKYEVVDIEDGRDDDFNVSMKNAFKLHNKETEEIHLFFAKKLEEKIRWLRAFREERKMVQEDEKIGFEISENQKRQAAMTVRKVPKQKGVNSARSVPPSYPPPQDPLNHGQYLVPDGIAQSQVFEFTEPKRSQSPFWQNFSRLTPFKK
The description is as above.

Assay [3] has as its target T3, Flag-gephyrin (N-terminally Flag-tagged full-length human gephyrin) (human) (UniProt Q9NQX3).
T3 sequence: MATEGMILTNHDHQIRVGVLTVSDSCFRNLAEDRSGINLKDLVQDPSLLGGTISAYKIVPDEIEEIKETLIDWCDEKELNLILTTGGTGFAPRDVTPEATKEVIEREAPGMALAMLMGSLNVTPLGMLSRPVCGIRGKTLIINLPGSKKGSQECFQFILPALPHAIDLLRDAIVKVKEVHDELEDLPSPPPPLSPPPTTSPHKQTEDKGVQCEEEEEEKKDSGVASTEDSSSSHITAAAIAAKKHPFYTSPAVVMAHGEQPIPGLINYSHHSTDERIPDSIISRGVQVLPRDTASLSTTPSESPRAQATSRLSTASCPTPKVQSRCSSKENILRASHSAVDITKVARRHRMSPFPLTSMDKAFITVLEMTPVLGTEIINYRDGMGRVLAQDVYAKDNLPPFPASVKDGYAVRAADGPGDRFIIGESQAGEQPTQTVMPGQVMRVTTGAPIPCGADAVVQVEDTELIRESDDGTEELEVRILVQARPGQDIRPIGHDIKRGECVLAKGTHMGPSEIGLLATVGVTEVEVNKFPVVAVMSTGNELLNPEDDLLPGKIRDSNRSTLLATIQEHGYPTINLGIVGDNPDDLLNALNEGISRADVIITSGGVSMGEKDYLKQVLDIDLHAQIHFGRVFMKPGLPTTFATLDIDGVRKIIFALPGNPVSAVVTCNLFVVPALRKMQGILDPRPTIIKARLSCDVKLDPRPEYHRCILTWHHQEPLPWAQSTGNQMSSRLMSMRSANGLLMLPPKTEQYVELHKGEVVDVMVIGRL
Nature of the assay: co-IP; HEK 293T cells cotransfected with Flag- and Myc-tagged proteins; lysis and washes in RIPA buffer; IP with anti-Flag antibody, blot with anti-Myc antibody.

Assay [4] deals with T4, Flag-CB (N-terminally Flag-tagged full-length human collybistin) (human) (UniProt O43307).
T4 sequence: T1 sequence
Described as above.

As to “GAL4AD-eIF3H (p40 subunit of the eukaryotic translation initiation factor 3, two-hybrid prey) (from UniProt O15372 1-352)”, the binding result in assay [1] and in assay [2] was “binds” throughout.
For “Myc-eIF3H (N-terminally Myc-tagged full-length human eIF3H) (from UniProt O15372 1-352)”, the binding entry in assay [3] and in assay [4] was “binds” each time.
